Results from US20240279298A1 (BEIJING TUO JIE BIOPHARMACEUTICAL CO. LTD., priority 2021, published 2024).
Some of these results come from one statement about several compounds together. Where a SMILES comes first, the peptide text is derived from it. [ ]: non-standard residue; d: D form. Aib = CC(C)(N)C(=O)O

Tested on: insulin-induced hypoglycemia rat model
Assay: Efficacy in insulin-induced hypoglycemic rat model
Type: in vivo, SD rats

## CC(C)C[C@H](NC(=O)[C@H](Cc1ccc(O)cc1)NC(=O)[C@H](CCCCN)NC(=O)[C@H](CO)NC(=O)[C@H](Cc1ccc(O)cc1)NC(=O)[C@H](CC(=O)O)NC(=O)[C@H](CO)NC(=O)[C@@H](NC(=O)[C@H](Cc1ccccc1)NC(=O)[C@@H](NC(=O)CNC(=O)[C@H](CCC(N)=O)NC(=O)[C@H](CO)NC(=O)[C@@H](N)Cc1c[nH]cn1)[C@@H](C)O)[C@@H](C)O)C(=O)N[C@@H](CC(=O)O)C(=O)N[C@@H](CC(C)C)C(=O)NC(C)(C)C(=O)N[C@@H](CCCNC(=N)N)C(=O)N[C@@H](C)C(=O)N[C@@H](CCC(N)=O)C(=O)N[C@@H](CCC(=O)O)C(=O)N[C@@H](Cc1ccccc1)C(=O)N[C@H](C(=O)N[C@@H](CCC(N)=O)C(=O)N[C@@H](Cc1c[nH]c2ccccc12)C(=O)N[C@@H](CC(C)C)C(=O)N[C@@H](CCC(=O)O)C(=O)N[C@@H](CO)C(=O)N[C@H](C(=O)O)[C@@H](C)O)C(C)C [Compound 40] (H-HSQGTFTSDYSKYLDL[Aib]RAQEFVQWLEST-OH)
  Time to restore the normal blood glucose levels after subcutaneous administration: ≤ 15 min
